From patent publication US7223760B2, “Substituted triazole compounds” (SmithKline Beecham Corporation, priority 1998, dated 2007)
For at least one compound, name, drawing or mass did not settle the structure.

By UniProt entry, the sequences of proteins in these tests, tags left out.
UniProt Q16539, whole entry: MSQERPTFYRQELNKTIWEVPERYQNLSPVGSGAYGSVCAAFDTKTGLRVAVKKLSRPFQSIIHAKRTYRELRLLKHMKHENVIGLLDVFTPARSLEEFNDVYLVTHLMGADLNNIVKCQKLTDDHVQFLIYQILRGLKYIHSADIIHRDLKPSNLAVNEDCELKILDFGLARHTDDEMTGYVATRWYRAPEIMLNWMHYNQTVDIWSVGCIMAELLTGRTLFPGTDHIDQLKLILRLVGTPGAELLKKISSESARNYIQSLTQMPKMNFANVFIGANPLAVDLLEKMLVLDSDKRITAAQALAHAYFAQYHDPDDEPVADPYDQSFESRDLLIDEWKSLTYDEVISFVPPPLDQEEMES

Target: T1, CSBP/p38 (Homo sapiens, UniProt Q16539)
T1 construct: made in house; host or cells: yeast
Test: CSBP/p38 Kinase Assay (32P transfer to T669 peptide)
Format: biochemical
Conditions: at concentrations of 100 uM
Description: This assay measures the CSBP/p38-catalyzed transfer of ^32p from [a-^32P]ATP to threonine residue in an epidermal growth factor receptor (EGFR)-derived peptide (T669) with the following sequence: […] (residues 661–681). (See Gallagher et al., “Regulation of Stress Induced Cytokine Production by Pyridinyl Imidazoles: Inhibition of CSBP Kinase”, BioOrganic & Medicinal Chemistry, 1997, 5, 49–64).
Reactions were carried in round bottom 96 well plate (from Corning) in a […]. Reactions contained (in final concentration): 25 mM Hepes, pH 7.5; 8 mM MgCl2; 0.17 mM ATP (the Km[ATP] of p38 (see Lee et al., Nature 300, n72 pg. 639–746 (December 1994)); 2.5 uCi of [g-32P]ATP; 0.2 mM sodium orthovanadate; 1 mM DTT; 0.1% BSA; 10% glycerol; 0.67 mM T669 peptide; and 2–4 nM of yeast-expressed, activated and purified p38. Reactions were initiated by the addition of [gamma-32P]Mg/ATP, and incubated for 25 min. at 37° C. Inhibitors (dissolved in DMSO) were incubated with the reaction mixture on ice for 30 minutes prior to adding the 32P-ATP. Final DMSO concentration was 0.16%. Reactions were terminated by adding 10 ul of 0.3 M phosphoric acid, and phosphorylated peptide was isolated from the reactions by capturing it on p81 phosphocellulose filters. Filters were washed with 75 mM phosphoric acids, and incorporated 32P was quantified using beta scintillation counter. […]

With `COc1cc2ncnc(-n3nc(-c4ccccc4)nc3-c3ccc(F)cc3)c2cc1OC` [Example 3, 1-[4-(6,7-Dimethoxyquinazoline)]-3-phenyl-5-(4-fluorophenyl)-1,2,4-triazole] as the molecule, how does the “activity in CSBP/p38 assay” value read?
The value was “not to be active”.
